These are yes or no findings as the source states them, for the method shown. For some assays here: In cells and extracts the contact can be indirect. Some entries that bind do so weakly or less than the wild type.
How the values were obtained:
[1] = target: T1, IKKα, endogenous in HeLa cells (human) (UniProt O15111); test: immuno-gold electron microscopy of HeLa cells, anti-Hsp60/IKKα double staining (FIG. 7E)
T1 sequence (looked up): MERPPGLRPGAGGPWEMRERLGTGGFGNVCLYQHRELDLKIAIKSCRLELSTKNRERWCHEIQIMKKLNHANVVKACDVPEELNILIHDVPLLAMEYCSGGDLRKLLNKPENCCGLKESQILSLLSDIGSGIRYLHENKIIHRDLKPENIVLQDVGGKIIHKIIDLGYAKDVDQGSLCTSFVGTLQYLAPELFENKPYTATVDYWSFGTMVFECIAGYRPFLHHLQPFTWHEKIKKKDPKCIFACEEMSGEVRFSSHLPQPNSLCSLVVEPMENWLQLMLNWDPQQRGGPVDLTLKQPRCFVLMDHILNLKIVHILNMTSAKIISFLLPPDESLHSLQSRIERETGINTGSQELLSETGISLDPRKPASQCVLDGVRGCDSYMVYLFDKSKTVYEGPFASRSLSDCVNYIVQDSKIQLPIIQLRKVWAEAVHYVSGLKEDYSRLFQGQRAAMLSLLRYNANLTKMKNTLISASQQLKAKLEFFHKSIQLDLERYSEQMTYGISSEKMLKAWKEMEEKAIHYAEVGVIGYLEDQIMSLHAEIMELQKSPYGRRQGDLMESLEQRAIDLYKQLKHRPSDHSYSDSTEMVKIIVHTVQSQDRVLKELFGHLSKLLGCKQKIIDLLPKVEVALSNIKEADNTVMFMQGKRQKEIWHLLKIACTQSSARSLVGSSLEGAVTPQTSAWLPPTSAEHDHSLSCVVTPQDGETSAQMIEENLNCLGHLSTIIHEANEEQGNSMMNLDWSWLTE

The chains behind the UniProt entries cited, without tags or fusion partners. Where a name states a change or a piece, a line headed by the entry shows the natural chain unless it says otherwise. Residues count along the entry.
UniProt Q9Y6K9: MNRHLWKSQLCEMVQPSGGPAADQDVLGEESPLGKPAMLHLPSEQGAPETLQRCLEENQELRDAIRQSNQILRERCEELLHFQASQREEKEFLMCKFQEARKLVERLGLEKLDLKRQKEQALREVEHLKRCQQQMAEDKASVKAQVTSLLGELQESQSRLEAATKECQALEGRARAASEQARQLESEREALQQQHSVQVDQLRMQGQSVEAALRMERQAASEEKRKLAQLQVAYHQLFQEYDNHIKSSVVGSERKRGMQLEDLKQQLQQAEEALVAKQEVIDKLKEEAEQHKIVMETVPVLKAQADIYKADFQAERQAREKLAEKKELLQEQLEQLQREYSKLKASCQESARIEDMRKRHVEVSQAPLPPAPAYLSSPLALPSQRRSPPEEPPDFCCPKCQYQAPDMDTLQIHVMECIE
UniProt P10809, residues 27-573: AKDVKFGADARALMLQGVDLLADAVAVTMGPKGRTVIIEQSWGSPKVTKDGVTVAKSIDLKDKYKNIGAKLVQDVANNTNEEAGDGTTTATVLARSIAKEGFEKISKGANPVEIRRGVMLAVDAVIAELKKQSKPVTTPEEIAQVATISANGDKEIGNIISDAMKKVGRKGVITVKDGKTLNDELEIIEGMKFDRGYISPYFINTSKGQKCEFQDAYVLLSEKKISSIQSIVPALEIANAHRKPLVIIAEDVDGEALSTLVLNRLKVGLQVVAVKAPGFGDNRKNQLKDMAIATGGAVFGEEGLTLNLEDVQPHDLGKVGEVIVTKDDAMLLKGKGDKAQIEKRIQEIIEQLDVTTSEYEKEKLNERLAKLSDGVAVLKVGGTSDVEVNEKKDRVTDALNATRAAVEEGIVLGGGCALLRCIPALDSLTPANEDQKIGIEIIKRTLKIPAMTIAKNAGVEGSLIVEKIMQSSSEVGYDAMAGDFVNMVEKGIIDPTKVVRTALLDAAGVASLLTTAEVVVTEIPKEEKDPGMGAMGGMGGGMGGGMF

[2] = target: T2, IKK complex, endogenous in HeLa cells (IKKα/β/γ subunits) (human) (UniProt O15111+O14920+Q9Y6K9); test: immuno-affinity purification of IKK complex from unstimulated HeLa S3 lysate with anti-IKKα antibody beads; LC-MS/MS, confirmed by immunoblot
[3] = target: T3, IKKβ, endogenous in HeLa cells (human) (UniProt O14920); test: immuno-gold electron microscopy of HeLa cells, anti-Hsp60/IKKβ double staining (FIG. 7F)
T3 sequence (looked up): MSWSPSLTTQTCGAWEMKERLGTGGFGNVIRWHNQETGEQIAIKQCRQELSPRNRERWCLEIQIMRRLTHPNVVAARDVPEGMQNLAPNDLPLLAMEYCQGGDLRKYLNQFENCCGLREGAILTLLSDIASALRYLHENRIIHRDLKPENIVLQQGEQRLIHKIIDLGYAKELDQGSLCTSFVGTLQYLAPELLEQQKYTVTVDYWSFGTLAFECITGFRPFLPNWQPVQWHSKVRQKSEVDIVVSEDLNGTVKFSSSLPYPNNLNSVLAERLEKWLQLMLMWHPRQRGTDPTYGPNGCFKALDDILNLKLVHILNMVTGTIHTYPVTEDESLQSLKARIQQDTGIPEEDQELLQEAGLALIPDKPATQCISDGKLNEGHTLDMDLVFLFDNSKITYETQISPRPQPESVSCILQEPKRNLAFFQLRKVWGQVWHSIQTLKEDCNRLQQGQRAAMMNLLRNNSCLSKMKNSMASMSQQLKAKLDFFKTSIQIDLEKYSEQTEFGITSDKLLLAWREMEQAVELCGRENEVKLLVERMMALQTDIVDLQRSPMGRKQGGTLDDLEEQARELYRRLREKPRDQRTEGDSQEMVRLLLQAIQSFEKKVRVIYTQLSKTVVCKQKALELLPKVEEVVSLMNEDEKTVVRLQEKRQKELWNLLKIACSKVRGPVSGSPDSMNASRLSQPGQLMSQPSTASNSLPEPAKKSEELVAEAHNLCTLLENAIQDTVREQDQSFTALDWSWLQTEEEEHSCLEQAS

[4] = target: T2, IKK complex, endogenous in HeLa cells (IKKα/β/γ subunits) (human); test: reverse immunoprecipitation from HeLa cytosolic fraction with anti-Hsp60 antibodies; IKKγ immunoblot
[5] = target: T1, IKKα, endogenous in HeLa cells (human); test: immuno-gold electron microscopy of HeLa cells, anti-Hsp60/IKKα (panel E)
[6] = target: T3, IKKβ, endogenous in HeLa cells (human); test: immuno-gold electron microscopy of HeLa cells, anti-Hsp60/IKKβ (panel F)
[7] = target: T2, IKK complex, endogenous in HeLa cells (IKKα/β/γ subunits) (human); test: co-immunoprecipitation from HeLa lysate with antibodies against IKKα, IKKβ and IKKγ; immunoblot
[8] = target: T2, IKK complex, endogenous in HeLa cells (IKKα/β/γ subunits) (human); test: co-immunoprecipitation from HeLa lysates with IKKα, IKKβ and IKKγ-specific antibodies; immunoblot

Measured: binding

Hsp60 (heat shock protein 60 kDa), endogenous in HeLa cells (from UniProt P10809 27-573)
binds: all assays above

From patent US20120308568A1
